{"source": "the supplement of paper PMC4604168 (melanoma cell lines)", "note": "This is one part of the list. Repeats are few or missing, and single values can be far off.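 Cells were imaged in 1,536-well plates, and nuclei stained with an antibody against cleaved PARP were counted against all DNA-stained nuclei to give the apoptosis fraction. Screening doses were chosen to leave most cells alive, and resting and induced cleaved-PARP levels differ strongly between cell lines.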", "data": [{"test_system": "CBRC034 (line from a melanoma biopsy)", "test": "cleaved PARP positive nuclei fraction relative to DMSO control; higher = more apoptosis", "conditions": "library dose: low library concentration; 72 h", "units": {"cleaved PARP positive nuclei fraction": "%"}, "values": [{"smiles": "Nc1cccc2c1CN(C1CCC(=O)NC1=O)C2=O", "note": "(stereo not given) [lenalidomide] + Cn1cc(/C=C2\\C(=O)Nc3cccnc32)c2ccccc21 [GW441756] (first compound 1 µM, partner dose 0.4 µM)", "cleaved PARP positive nuclei fraction": 45.3}, {"smiles": "Cc1nc(Nc2ncc(C(=O)Nc3c(C)cccc3Cl)s2)cc(N2CCN(CCO)CC2)n1", "note": "[dasatanib] + c1cc(-c2cnn3cc(-c4ccc(OCCN5CCCCC5)cc4)cnc23)ccn1 [Dorsomorphin] (first compound 0.004 µM, partner dose 0.4 µM)", "cleaved PARP positive nuclei fraction": 133}, {"smiles": "Cn1cncc1[C@@](N)(c1ccc(Cl)cc1)c1ccc2c(c1)c(-c1cccc(Cl)c1)cc(=O)n2C", "note": "[tipifarnib] + O=C(O)C(=O)Nc1sc2c(c1C(=O)O)CCNC2 [TCS401] (first compound 0.01 µM, partner dose 1.66667 µM)", "cleaved PARP positive nuclei fraction": 156}, {"smiles": "Cn1c(Nc2ccc(C(F)(F)F)cc2)nc2cc(Oc3ccnc(-c4ncc(C(F)(F)F)[nH]4)c3)ccc21", "note": "+ O=C(Nc1ccccc1)c1cc([N+](=O)[O-])ccc1Cl [GW9662] (first compound 0.08 µM, partner dose 2 µM)", "cleaved PARP positive nuclei fraction": 101}, {"smiles": "Cn1cncc1[C@@](N)(c1ccc(Cl)cc1)c1ccc2c(c1)c(-c1cccc(Cl)c1)cc(=O)n2C", "note": "[tipifarnib] + Oc1nc(-c2ccc(C(F)(F)F)cc2)nc2c1CSCC2 [XAV939] (first compound 0.01 µM, partner dose 2 µM)", "cleaved PARP positive nuclei fraction": 40.5}, {"smiles": "Cn1nnc2c(C(N)=O)ncn2c1=O", "note": "[temozolomide] + COc1ccc2c(c1)CCC1C2CCC2(C)C(NCCCCCCN3C(=O)C=CC3=O)CCC12 [U73122] (first compound 2 µM, partner dose 0.4 µM)", "cleaved PARP positive nuclei fraction": 44.3}]}, {"test_system": "COLO792", "test": "cleaved PARP positive nuclei fraction relative to DMSO control; melanoma cells; higher = more apoptosis", "conditions": "library dose: low library concentration; 72 h", "units": {"cleaved PARP positive nuclei fraction": "%"}, "values": [{"smiles": "OCCn1cc(-c2cnc3nnn(Cc4ccc5ncccc5c4)c3n2)cn1", "note": "+ Oc1cc(-c2nc(-c3ccccc3)[nH]c2-c2ccncc2)ccc1Cl [L779450] (first compound 1 µM, partner dose 0.2 µM)", "cleaved PARP positive nuclei fraction": 182}, {"smiles": "CO[C@@H]1[C@H](N(C)C(=O)c2ccccc2)C[C@H]2O[C@]1(C)n1c3ccccc3c3c4c(c5c6ccccc6n2c5c31)C(=O)NC4", "note": "[Midostaurin] + O=C(Nc1ccccc1)c1cc([N+](=O)[O-])ccc1Cl [GW9662] (first compound 0.08 µM, partner dose 2 µM)", "cleaved PARP positive nuclei fraction": 76.8}, {"smiles": "CC1(C)NC(=O)N(c2ccc([N+](=O)[O-])c(C(F)(F)F)c2)C1=O", "note": "[nilutamide] + COC(=O)c1sccc1S(=O)(=O)Nc1ccc(Nc2ccccc2)cc1OC [GSK0660] (first compound 1 µM, partner dose 1 µM)", "cleaved PARP positive nuclei fraction": 213}, {"smiles": "Cc1nc(Nc2ncc(C(=O)Nc3c(C)cccc3Cl)s2)cc(N2CCN(CCO)CC2)n1", "note": "[dasatanib] + Cc1cc([N+](=O)[O-])ccc1NS(=O)(=O)c1cc(Cl)ccc1Cl [FH535] (first compound 0.004 µM, partner dose 1 µM)", "cleaved PARP positive nuclei fraction": 291}, {"smiles": "C[C@@H]1CCN(C(=O)CC#N)C[C@@H]1N(C)c1ncnc2[nH]ccc12", "note": "+ O=C(Nc1ccccc1)c1cc([N+](=O)[O-])ccc1Cl [GW9662] (first compound 1 µM, partner dose 2 µM)", "cleaved PARP positive nuclei fraction": 145}, {"smiles": "C=CCn1c(=O)c2cnc(Nc3ccc(N4CCN(C)CC4)cc3)nc2n1-c1cccc(C(C)(C)O)n1", "note": "+ O=c1cc(-c2cccc3c2Sc2ccccc2S3)oc(N2CCOCC2)c1 [KU55933] (first compound 0.02 µM, partner dose 1 µM)", "cleaved PARP positive nuclei fraction": 45.9}, {"smiles": "Cc1ccc(NC(=O)c2cccc(N(C)C)c2)cc1NC(=O)c1ccc(O)cc1", "note": "+ N#Cc1c(O)c2c(-c3ccc(-c4ccccc4O)cc3)csc2[nH]c1=O [A769662] (first compound 2 µM, partner dose 2 µM)", "cleaved PARP positive nuclei fraction": 119}, {"smiles": "Cc1cc(N2CCOCC2)cc2[nH]c(-c3c(NC[C@@H](O)c4cccc(Cl)c4)cc[nH]c3=O)nc12", "note": "+ O=C(O)C(=O)Nc1sc2c(c1C(=O)O)CCNC2 [TCS401] (first compound 0.2 µM, partner dose 1.66667 µM)", "cleaved PARP positive nuclei fraction": 64.2}, {"smiles": "C=CCn1c(=O)c2cnc(Nc3ccc(N4CCN(C)CC4)cc3)nc2n1-c1cccc(C(C)(C)O)n1", "note": "+ CCN(CC)CCCCNc1ncc2cc(-c3cc(OC)cc(OC)c3)c(NC(=O)NC(C)(C)C)nc2n1 [PD173074] (first compound 0.02 µM, partner dose 0.1 µM)", "cleaved PARP positive nuclei fraction": 107}]}]}
